{"sequences": {"note": "Protein sequences, listed by entry. Tags and fused reporters are not part of them.", "UniProt P51111": "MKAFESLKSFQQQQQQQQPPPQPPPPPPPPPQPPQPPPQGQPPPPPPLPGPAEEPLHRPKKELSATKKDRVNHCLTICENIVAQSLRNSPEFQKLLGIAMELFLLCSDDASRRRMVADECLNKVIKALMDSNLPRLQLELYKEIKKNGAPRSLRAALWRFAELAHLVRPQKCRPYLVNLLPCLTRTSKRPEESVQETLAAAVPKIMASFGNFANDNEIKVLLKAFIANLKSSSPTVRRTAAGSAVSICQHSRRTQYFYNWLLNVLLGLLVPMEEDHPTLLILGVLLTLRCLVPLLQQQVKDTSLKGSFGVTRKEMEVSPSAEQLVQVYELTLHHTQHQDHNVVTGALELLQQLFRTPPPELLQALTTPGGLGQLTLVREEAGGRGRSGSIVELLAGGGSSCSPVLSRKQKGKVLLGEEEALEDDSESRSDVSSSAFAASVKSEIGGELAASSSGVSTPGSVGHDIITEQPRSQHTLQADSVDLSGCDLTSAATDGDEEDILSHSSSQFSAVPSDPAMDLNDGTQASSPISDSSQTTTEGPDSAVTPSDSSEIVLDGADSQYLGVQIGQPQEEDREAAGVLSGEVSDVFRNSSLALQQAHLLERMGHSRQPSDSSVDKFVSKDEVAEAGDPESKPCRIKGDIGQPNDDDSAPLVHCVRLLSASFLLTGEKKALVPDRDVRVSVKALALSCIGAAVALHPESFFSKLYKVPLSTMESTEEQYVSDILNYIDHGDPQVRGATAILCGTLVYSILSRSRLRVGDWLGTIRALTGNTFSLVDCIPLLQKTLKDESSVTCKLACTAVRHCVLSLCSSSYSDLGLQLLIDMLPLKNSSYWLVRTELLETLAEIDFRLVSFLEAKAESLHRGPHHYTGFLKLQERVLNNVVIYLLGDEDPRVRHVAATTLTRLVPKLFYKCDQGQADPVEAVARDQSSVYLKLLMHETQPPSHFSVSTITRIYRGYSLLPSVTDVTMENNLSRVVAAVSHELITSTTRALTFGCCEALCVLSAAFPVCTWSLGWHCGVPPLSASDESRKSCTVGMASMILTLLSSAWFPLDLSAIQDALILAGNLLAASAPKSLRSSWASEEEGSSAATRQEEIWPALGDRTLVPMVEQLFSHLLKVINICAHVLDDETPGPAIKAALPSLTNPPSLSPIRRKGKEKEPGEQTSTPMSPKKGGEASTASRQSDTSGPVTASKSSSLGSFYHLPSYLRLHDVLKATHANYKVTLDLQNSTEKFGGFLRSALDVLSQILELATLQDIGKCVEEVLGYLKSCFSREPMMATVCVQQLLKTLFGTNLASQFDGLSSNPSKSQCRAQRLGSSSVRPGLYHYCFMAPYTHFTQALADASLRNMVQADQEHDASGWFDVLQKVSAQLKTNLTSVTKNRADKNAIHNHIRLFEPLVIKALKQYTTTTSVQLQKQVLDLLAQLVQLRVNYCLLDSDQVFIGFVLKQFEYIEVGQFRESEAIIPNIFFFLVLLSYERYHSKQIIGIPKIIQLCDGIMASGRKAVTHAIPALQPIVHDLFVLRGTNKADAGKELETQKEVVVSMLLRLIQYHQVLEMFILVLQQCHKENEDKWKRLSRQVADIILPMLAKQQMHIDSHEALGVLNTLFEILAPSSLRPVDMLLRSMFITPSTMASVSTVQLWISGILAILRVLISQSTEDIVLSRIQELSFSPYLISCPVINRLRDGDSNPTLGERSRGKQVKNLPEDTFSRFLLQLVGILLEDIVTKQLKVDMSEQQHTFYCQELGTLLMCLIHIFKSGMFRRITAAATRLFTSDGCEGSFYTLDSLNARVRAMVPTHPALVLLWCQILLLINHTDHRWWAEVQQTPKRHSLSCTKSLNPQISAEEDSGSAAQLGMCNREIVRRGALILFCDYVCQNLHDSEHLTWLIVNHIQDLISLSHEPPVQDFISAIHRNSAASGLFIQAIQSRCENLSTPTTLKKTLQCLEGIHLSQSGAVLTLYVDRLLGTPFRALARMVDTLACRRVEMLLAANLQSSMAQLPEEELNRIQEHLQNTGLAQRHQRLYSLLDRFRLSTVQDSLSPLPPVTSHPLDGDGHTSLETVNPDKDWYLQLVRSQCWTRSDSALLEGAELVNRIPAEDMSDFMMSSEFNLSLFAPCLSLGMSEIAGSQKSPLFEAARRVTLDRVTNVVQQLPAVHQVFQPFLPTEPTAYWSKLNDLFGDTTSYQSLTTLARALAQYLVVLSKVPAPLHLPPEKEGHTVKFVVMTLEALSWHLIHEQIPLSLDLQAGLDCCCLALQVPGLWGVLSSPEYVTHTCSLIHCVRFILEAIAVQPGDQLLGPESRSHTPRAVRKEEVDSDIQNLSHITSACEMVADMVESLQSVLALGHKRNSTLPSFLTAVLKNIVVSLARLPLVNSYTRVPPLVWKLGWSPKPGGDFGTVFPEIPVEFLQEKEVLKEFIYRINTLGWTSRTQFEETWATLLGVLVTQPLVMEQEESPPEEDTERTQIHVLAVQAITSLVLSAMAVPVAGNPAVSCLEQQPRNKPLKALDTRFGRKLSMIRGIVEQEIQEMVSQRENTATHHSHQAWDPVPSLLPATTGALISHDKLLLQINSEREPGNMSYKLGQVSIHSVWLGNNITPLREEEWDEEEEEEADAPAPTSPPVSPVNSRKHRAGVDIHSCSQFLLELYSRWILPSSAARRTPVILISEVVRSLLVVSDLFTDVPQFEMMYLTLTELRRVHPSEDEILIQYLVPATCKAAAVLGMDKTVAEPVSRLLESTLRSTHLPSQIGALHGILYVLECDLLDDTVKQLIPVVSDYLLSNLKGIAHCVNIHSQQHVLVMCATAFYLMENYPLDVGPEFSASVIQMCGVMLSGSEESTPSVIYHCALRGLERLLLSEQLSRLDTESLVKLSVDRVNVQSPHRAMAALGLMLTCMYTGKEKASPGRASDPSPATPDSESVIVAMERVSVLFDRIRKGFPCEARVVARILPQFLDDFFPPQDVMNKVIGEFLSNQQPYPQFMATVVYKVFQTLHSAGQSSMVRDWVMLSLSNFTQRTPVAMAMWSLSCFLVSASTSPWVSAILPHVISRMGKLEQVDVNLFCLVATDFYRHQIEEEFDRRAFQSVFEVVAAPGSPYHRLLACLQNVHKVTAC"}, "source": "paper PMC8396294", "target": "Huntingtin (HTT), endogenous in rat brain (rat (endogenous in rat brain)) (UniProt P51111)", "assay": "co-IP; brain protein lysates (N-PER reagent) of 55 weeks-old wild type and tgHD rats; (m)HTT precipitated with mab2166 (1 ug); TG6 detected with a polyclonal isoform-specific antibody (Zedira)", "note": "Results are given in words; binding and its absence hold for the method and conditions named. Binding seen in cells or lysates may run through a third protein. Some results given as binding are weak or reduced against the parent protein; the word gives no strength.", "data": [{"binder": "Transglutaminase 6 (TG6), endogenous in rat brain (enzyme, UniProt F1M4T7 1-706) MAGVRITKVDWQHSENGAAHHTQDYPCPELVVRRGQLFSLTLDLNRALDSEEALIFTVETGPHASEALHTKAIFQTAELEIGDTWTAAKEEQTENTITVSLSSPSNAVIGRYLLSARAASRRKHSDRKLGQFILLFNPWCPEDDVFLDSEEERQEYVLNDSGIIFRGVEKHIRAQGWNYGQFEEDILNICLSILDRSPSHQDDPATDVSHRHDPVYVTRIISAMVNSNNDRGVVQGQWQGKYGGGTNPLNWRGSVAILQKWFKGKYKPVKYGQCWVFAGVMCTVLRCLGIATRVVSNFNSAHDTDGNLSVDKYVDSYGRTLEDLTEDSMWNFHVWNESWFARQDLGSSYDGWQVLDATPQEESEGTFQCGPASVTAIREGDVHLAHDGPFVFAEVNADYITWLWHEDKRRERVYSDTKKIGRCISTKAVGSDSRVDITGLYKYPEGSRKERQVYGKALKKLLSVEAWGRRRRIRRASVRGIWRDDLLEPVTKPSITGKFKVLEPPVLGQDLKLALCLTNLTTRAQRVRVNVSGATILYTRKPVAEILRESHTMKLGPLEEKRIPVTISYSQYKEDLTEDKKILLAAMCLVSKGEKLLVEKDITLEDFITIKVLGPAVVGVTVAVEVLVINPLSESVKDCVLMVEGSGLLQGQLSVEVPSLKPQERALIQFNITPSKSGPRQLQVDLVSSQFPDIKGFVIIHVATAK", "values": [{"measurement": "binding", "result": "binds"}]}]}
